Data taken from paper PMC7862700.
The other results are listed elsewhere or left out. The exact form of the protein is not confirmed.

These sequences were tested against T1, ETS1 (UniProt P14921) (assay: DAPPL (digital affinity profiling via proximity ligation, sequencing)). Conditions: 10 mM Tris-HCl pH 7.5, 50 mM NaCl, 1 mM DTT, 4% glycerol, room temperature, 30 min; GST-TFs on glutathione beads, 16-mer random dsDNA library, 0.1% …; high values mean tight binding; double strand, one strand shown; scale: fold enrichment (6-mer frequency, TF over GST control).
T1 sequence: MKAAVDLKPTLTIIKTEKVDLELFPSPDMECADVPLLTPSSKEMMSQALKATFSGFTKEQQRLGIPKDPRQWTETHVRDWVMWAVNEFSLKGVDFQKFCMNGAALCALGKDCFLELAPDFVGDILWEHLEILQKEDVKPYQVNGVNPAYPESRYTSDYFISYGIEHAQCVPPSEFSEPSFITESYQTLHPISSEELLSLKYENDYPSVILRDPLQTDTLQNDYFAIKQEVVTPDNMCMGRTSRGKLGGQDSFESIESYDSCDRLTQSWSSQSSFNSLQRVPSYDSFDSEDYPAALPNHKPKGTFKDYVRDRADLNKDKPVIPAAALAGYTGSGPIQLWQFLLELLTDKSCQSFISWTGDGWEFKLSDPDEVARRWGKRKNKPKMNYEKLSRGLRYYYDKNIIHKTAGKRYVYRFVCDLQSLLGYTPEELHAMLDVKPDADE
TCCACA gave a binding signal of 1.27.
TACCAC was tested, and the binding signal was 1.23.
Work on GGTATA yielded a binding signal of 1.07.
For ATACCC, the binding signal was 1.21.
With ATGTTC the binding signal was 1.28.
GCTCGT showed a binding signal of 1.23.
TCTTTG was tested, and the binding signal was 1.14.
Work on ACATCC yielded a binding signal of 2.52.
In the case of GGCTTC, the binding signal was 1.7.
AAGAAA gave a binding signal of 1.27.
In the case of AACGTC, the binding signal was 1.07.
TACACG was tested, and the binding signal was 1.17.
In the case of CTCCTT, the binding signal was 1.78.
With ATTTTT the binding signal was 1.24.
Work on TGCAAC yielded a binding signal of 1.34.
For TCTCGC, the binding signal was 1.63.
TGCTCA gave a binding signal of 1.29.
TCTAGC showed a binding signal of 1.23.
ATTAGC gave a binding signal of 1.19.
CTAAAA was tested, and the binding signal was 1.15.
TAAAAT gave a binding signal of 1.23.
In the case of CACTCT, the binding signal was 1.3.
Work on TCATTT yielded a binding signal of 1.37.
ATGAAT gave a binding signal of 1.16.
With TAGGTT the binding signal was 1.16.
ACCTAA showed a binding signal of 1.15.
In the case of CAACCA, the binding signal was 1.13.
AAACCC was tested, and the binding signal was 1.39.
GGATCC was tested, and the binding signal was 1.08.
Work on CGAAAC yielded a binding signal of 1.16.
GCGTTC was tested, and the binding signal was 1.27.
In the case of CCCTGG, the binding signal was 1.24.
For ATTCGT, the binding signal was 1.29.
CTTCTG gave a binding signal of 1.53.
AAGTAC gave a binding signal of 1.37.
Sequence TTGCAT has a binding signal of 1.48.
For ATCTTT, the binding signal was 1.26.
GCTTAG gave a binding signal of 1.07.
Sequence ACGCCC has a binding signal of 1.06.
